Patent publication US20040253243
The exact form of at least one protein or probe is not confirmed. For part of these data: Negatives hold for the conditions tested.

Protein sequences, listed by entry. Tags and fused reporters are not part of them. Chains listed by the source or under a name are the forms on record and can include a tag or linker. Residues count along the entry.
UniProt Q05028, 74-182: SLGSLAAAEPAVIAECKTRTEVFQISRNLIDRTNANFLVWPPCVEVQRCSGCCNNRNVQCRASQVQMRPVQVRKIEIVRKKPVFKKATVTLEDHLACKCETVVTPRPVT
UniProt P61812, other isoform, or with tags, fused parts or gaps: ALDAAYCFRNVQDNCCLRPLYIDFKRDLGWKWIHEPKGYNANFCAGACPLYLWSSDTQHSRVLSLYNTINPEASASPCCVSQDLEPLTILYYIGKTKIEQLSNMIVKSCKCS

Experiments:
PDGF-AA (Homo sapiens) = PDGF-AA (Homo sapiens) (UniProt P04085); test: binding assay; conditions: [PEG40K]-NH2-dCdAdGdGdCfUdAfCmG-PEG-dCdGTdAmGdAmGdCdAfUfCmA-PEG-TdGdATfCfCfUmG-3T (f 2'-F, m 2'-OMe, d deoxy; PEG spacers); AA isoform not recognized
PDGF-BB (Rattus) = PDGF-BB (Rattus) (UniProt Q05028); test: binding assay; conditions: [PEG40K]-NH2-dCdAdGdGdCfUdAfCmG-PEG-dCdGTdAmGdAmGdCdAfUfCmA-PEG-TdGdATfCfCfUmG-3T (f 2'-F, m 2'-OMe, d deoxy; PEG spacers); equivalent affinity to human PDGF
PDGF-BB (Homo sapiens) = PDGF-BB (Homo sapiens) (UniProt P01127); test: activity in cells; conditions: [PEG40K]-NH2-dCdAdGdGdCfUdAfCmG-PEG-dCdGTdAmGdAmGdCdAfUfCmA-PEG-TdGdATfCfCfUmG-3T (f 2'-F, m 2'-OMe, d deoxy; PEG spacers); cellular IC50; PDGF isoform not stated
[1] = target: TGF-beta2 (mature, wild type) (Homo sapiens) (UniProt P61812); test: filter binding; conditions: 2'-F all C and U, 2'-OH purines, 3'-inverted T (3T); ±0.6, unit implied; 2.5±0.3 nM in FIG. 6C, 1 nM in Example 8 table; 50 mM Hepes pH 7.4, 1 mM MgCl2, 1 mM CaCl2, 140 mM NaCl, room temperature; purified recombinant protein
[2] = target: TGF-beta2 N-terminal His-tagged (long tag) (Homo sapiens) (UniProt P61812); test: filter binding; conditions: 2'-F all C and U, 2'-OH purines, 3'-inverted T (3T); purified recombinant protein; protein details: N-terminal His6 plus about 30 extra residues
[3] = target: TGF-beta2 (mature, wild type) (Homo sapiens) (UniProt P61812); test: activity in cells; conditions: 2'-F all C and U, 2'-OH purines, 3'-inverted T (3T); cell IC50; purified recombinant protein

| Sequence | binding result (PDGF-AA (Homo sapiens)) | binding result (PDGF-BB (Rattus)) | IC50 (PDGF-BB (Homo sapiens)) [nM] | Kd [1] [nM] | Kd [2] [nM] | IC50 [3] [nM] |
| --- | --- | --- | --- | --- | --- | --- |
| CAGGCUACGCGTAGAGCAUCATGATCCUG [ARC127] | no binding | binds | 2 |  |  |  |
| GGAGGUUAUUACAGAGUCUGUAUAGCUGUACUCC [ARC77] |  |  |  | 3.6 | > 500 | 10 |
